Results as given in publication PMC12172431.
These are yes or no findings as the source states them, for the method shown. In cells and extracts the contact can be indirect. Here binding means that the protein was enriched with, or labelled near, the bait; the list need not be complete. For some of these results: Where a sequence is shown, tags or fusion partners need not be part of it.

T1: Ac51 (AcMNPV) (UniProt P41455)
T1 sequence: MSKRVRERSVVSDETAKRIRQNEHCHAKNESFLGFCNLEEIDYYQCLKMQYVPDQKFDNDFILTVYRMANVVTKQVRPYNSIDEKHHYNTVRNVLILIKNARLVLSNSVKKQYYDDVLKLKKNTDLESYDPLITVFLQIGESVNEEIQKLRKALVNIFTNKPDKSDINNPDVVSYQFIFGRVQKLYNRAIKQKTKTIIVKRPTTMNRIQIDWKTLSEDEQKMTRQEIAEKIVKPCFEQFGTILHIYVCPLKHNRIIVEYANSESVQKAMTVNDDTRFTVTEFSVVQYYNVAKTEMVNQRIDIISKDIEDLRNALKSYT

T2: Flag-tagged Ac66 (AcMNPV) (UniProt P41467)
T2 sequence: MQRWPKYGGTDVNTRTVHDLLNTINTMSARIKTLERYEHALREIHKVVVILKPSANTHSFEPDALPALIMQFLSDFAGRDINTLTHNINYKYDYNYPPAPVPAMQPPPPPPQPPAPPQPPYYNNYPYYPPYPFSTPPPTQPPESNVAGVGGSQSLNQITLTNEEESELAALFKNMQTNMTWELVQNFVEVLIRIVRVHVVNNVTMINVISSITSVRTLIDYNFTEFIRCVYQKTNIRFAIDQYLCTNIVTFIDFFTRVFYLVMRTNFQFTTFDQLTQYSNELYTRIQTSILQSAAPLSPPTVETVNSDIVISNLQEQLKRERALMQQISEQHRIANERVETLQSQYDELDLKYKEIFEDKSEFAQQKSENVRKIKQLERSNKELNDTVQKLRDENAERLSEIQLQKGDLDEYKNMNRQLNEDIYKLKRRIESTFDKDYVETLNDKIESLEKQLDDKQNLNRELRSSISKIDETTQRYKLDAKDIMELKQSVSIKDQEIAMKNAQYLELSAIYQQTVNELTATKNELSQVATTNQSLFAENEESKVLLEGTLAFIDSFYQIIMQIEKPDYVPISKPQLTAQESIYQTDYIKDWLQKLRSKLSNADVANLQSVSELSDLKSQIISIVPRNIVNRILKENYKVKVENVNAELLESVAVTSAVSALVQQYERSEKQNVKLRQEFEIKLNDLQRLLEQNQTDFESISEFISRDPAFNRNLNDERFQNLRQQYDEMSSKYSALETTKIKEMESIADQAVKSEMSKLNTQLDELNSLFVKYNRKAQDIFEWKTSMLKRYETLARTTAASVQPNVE

B1: ME53 (protein, UniProt Q04719 1-449)
chain: MNRFFRENNIFDAPRTGGKGRAKSLPAPAANSPPSPVRPPPKSNIKPPTRISPPKQPMCTSPAKPLEHSSIVSKKPVVNRKDGYFVPPEFGNKFEGLPAYSDKLDFKQERDLRMHFMSDLERDIMKATLKFSTNYIMGYINSKDMRMTGKFASRPVKYKKTMEHMSDSRCTTCNYRFKDNTREWFLYVVVHIEKPLDDPDRIDICCQKCYLYHNVPKTSYEIYPSINLVDLSYLARERFFYQYIFPVSLEHTTEVKELRIDDHNCKVFEIIRRIIRNHKEPNERIQTIDLSTTGGLVLRETYTNIVLQRYRSMCTRPDVVDDVNCFILQEPSEMMAALQDNRFSGIKGTVFATVKVKKFTQVLDGAITFPLKPTTNNYCKLCKKTKLYYKNPVLYCTKCGFTNVYHFPEYSKFMYYFEAIKSFEMHNEMIIYYDLKMYKKLINIVNNNV
B2: Ac66 (protein, UniProt P41467 1-808)
chain: T2 sequence
B3: p47 (protein, UniProt P34051 1-401)
chain: MFVTRLEHTTQFLPQACKLEDEVLVLYAIYLNGFDYTLPRFVKREVQVNADGFVRFDYNIKMFDFARFTDMTQTTPEDIDDYINLTRINSLSDHDLKMLQLVCRDRWYKGDVARLRRILQQKDVDDLVKFVCNVMWERAYEDHYTLGQQLSIRITTKLIQSGLDFKHQPDTTAPVSVRGWEDATFEKYLQSITSISEVIKRHVFSKKYICLEVAASYWSDAVESLQQENFRIILNSKTPYVLLIEMDDDKNSMVYLRKLAHLLENKIVNLLFVTDVEFYFKNGNFMFYLYNSLKFYYYCLKNKFAFENVDKEIFFLLYTIVALEWFNGGHLNSFTLEKSALYNPLELSTRRLNSIKRAAQHNRVINCDSEINMDYIRGKRVRTGAHYGKRVVNFDLNQSLH
B4: Ac132 (protein, UniProt P24730 1-219)
chain: MSDKTPTKKGGSHAMTLRERGVTKPPKKSEKLQQYKKAIAAEQTLRTTADVSSLQNPGESAVFQELERLENAVVVLENEQKRLYPILDTPLDNFIVAFVNPTYPMAYFVNTDYKLKLECARIRSDLLYKNKNEVAINRPKISSFKLQLNNVILDTIETIEYDLQNKVLTITAPVQDQELRKSIIYFNILNSDSWEVPKYMKKLFDEMQLEPPVILPLGL
B5: Chitinase (enzyme, UniProt P41684 18-551)
chain: IPGTPVIDWADRNYALVEINYEATAYENLIKPKEQVDVQVSWNVWNGDIGDIAYVLFDEQQVWKGDAESKRATIKVLVSGQFNMRVKLCNEDGCSVSDPVLVKVADTDGGHLAPLEYTWLENNKPGRREDKIVAAYFVEWGVYGRNFPVDKVPLPNLSHLLYGFIPICGGDGINDALKTIPGSFESLQRSCKGREDFKVAIHDPWAAVQKPQKGVSAWNEPYKGNFGQLMAAKLANPHLKILPSIGGWTLSDPFYFMHDVEKRNVFVDSVKEFLQVWKFFDGVDIDWEFPGGKGANPSLGDADGDAKTYILLLEELRAMLDDLEAQTGRVYELTSAISAGYDKIAVVNYAEAQKSLGKIFLMSYDFKGAWSNTDLGYQTTVYAPSWNSEELYTTHYAVDALLKQGVDPNKIIVGVAMYGRGWTGVTNYTNDNYFSGTGNGPGSGTWEDGVVDYRQIQKDLNNYVYTFDSAAQASYVFDKSKGDLISFDSVDSVLGKVKYVDRNKLGGLFAWEIDADNGDLLNAINAQFKPKDEL
B6: AcOrf-74 peptide (protein, UniProt P41473 1-265)
chain: MKINLCNIQFQSLINLLNLQATTMSLLNSNKIKADLIPDEDDPKKITLRLNSVPEEHTDDNSSIDLPLTTPKQKDDFMNAIKSFETLNIEPDIVKTEQADAPATSGDNNRKVVDANVDEYTVDGLKLKSKYVAYYKCLKILVDFLVMYVSKEVSMKEYEQVYTLGRQLYEVLRSIFVDEPFKLWLERNTHEFDNNKDKILETLQSELKLALADKDKLKTCTFKDIITNLLNTKLDCKYDCADEYIKPNCIVDTYNCCNLVFKKET
B7: Ac51 (protein, UniProt P41455 1-318)
chain: T1 sequence
B8: vp39 (protein, UniProt P17499 1-347)
chain: MALVPVGMAPRQMRVNRCIFASIVSFDACITYKSPCSPDAYHDDGWFICNNHLIKRFKMSKMVLPIFDEDDNQFKMTIARHLVGNKERGIKRILIPSATNYQDVFNLNSMMQAEQLIFHLIYNNENAVNTICDNLKYTEGFTSNTQRVIHSVYATTKSILDTTNPNTFCSRVSRDELRFFDVTNARALRGGAGDQLFNNYSGFLQNLIRRAVAPEYLQIDTEELRFRNCATCIIDETGLVASVPDGPELYNPIRSSDIMRSQPNRLQIRNVLKFEGDTRELDRTLSGYEEYPTYVPLFLGYQIINSENNFLRNDFIPRANPNATLGGGAVAGPAPGVAGEAGGGIAV

Each binder was assayed against T1, Ac51 (AcMNPV) (assay: affinity purification with mass spectrometry; Sf9 cells infected with vAcWT (MOI 5), collected at 48 h p.i.; IP with anti-Ac51 antibody, IgG as control; LC-MS/MS).

Binder | binding
B1 | binds
B2 | binds
B3 | binds
B4 | binds

What follows are binders tested against T2, Flag-tagged Ac66 (AcMNPV) (assay: affinity purification with mass spectrometry; Sf9 cells infected with vAcWT^Ac66Flag (MOI 5), collected at 48 h p.i.; IP with anti-Flag antibody, IgG as control; LC-MS/MS).

Binder | binding
B1 | binds
B5 | binds
B6 | binds
B4 | binds
B7 | binds
B8 | binds
